From PubChem BioAssay AID1671190 (National Center for Advancing Translational Sciences (NCATS), 2021)
Values joined by “and” are separate entries in the source; they are usually repeats but may differ in a detail not shown here. Equal values may be shown once. The campaign covered roughly 580,000 compounds. About 6,100 (1.1%) were called active. The shares of active, inactive and inconclusive entries below differ from those in the screen. The call rests on the fitted dose curve; in most records, active means well fitted inhibition curve with a large enough effect; inconclusive means small, poorly fitted or top-dose-only effect, or another doubt; inactive means no such curve, though single readings can be large or run the other way. A potency beside an inconclusive call is a rough fit, not a confirmed value. Peptide text beside a SMILES is read from it. * marks the point of attachment. CH2Cl = ClC*

Amino acid sequences for entries named in this document (tags omitted). A change or cut given only in a name is not applied to a line headed by its entry.
UniProt P18054: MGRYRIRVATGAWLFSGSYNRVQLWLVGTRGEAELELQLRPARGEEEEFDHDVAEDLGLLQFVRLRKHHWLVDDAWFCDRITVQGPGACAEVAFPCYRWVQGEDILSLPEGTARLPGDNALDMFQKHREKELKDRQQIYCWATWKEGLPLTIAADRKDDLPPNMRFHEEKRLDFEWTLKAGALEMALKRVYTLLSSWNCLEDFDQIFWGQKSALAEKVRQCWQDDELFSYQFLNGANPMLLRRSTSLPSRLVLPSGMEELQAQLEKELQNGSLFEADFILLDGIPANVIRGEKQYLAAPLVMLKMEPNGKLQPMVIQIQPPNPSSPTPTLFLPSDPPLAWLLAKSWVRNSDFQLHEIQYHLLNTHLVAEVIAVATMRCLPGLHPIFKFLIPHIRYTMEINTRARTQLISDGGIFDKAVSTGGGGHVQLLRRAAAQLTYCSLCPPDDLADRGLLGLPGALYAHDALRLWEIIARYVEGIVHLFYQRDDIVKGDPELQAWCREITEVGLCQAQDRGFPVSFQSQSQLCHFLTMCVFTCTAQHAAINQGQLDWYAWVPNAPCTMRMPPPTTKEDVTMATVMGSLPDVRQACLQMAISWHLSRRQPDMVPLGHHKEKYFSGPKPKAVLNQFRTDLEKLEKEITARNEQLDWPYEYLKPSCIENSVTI

Biological target: Polyunsaturated fatty acid lipoxygenase ALOX12 (Homo sapiens) (UniProt P18054)
Assay: Primary qHTS assay for inhibitors of human arachidonate 12S-lipoxygenase (ALOX12): Round 2
Details: purified 12hLO, xylenol orange hydroperoxide absorbance; series mostly up to 108 µM
Procedure, shortened: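 Purified human 12hLO (150 nM final) in 25 mM Hepes, 0.01% Triton X-100, pH 7.0 was preincubated 15 min at room temperature with compound. Then 40 uM arachidonic acid was added, 30 min. Hydroperoxide was read by Fe-XO absorbance ratio 573/405 nm.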
Potency means the concentration at half of the fitted maximal effect.

| Compound | Potency |
| --- | --- |
| COc1ccc(Cl)cc1NC(=O)/C(C#N)=C/c1coc2c(Cl)cc(Cl)cc2c1=O | inconclusive: 8.91 µM [inhibitor, partial curve, poor fit] |
| Cc1ccc(NC(=O)CN(C)C(=O)Cc2ccc(Cl)c(Cl)c2)cc1 | inconclusive: 112 µM [inhibitor, partial curve, poor fit] |
| O=C(O)c1cc(-c2ccncc2)nc2ccc(F)cc12 | inconclusive: 11.2 µM [inhibitor, full curve, poor fit] |
| COc1ccc(OCc2nnc3n2N=C(c2ccccc2)C(CC(=O)O)S3)cc1 (configuration not stated) | inconclusive: 44.7 µM [inhibitor, partial curve, poor fit] |
| Cc1ccc2c(c1)N(C(=O)CCC(=O)NCCCN1CCC(Cc3ccccc3)CC1)CCO2 | inactive |
| COc1ccc2cc1Oc1ccc(cc1)C[C@H]1c3cc(c(OC)cc3CCN1C)Oc1c(OC)c(OC)cc3c1[C@H](C2)N(C)CC3 | inconclusive: 3.06 µM [inhibitor, full curve, poor fit] |
| COc1ccc(C(C(=O)NCc2ccccc2)N(C(=O)c2snc(C(N)=O)c2N)c2ccccc2OC)cc1OC (configuration not stated) | inactive |
| Cc1ccc(S(=O)(=O)N2CC(=NO)C2)cc1 | inconclusive: 39.8 µM [inhibitor, partial curve, poor fit] |
| O=C(c1ccco1)N(Cc1cccnc1)c1nc2c(F)cc(F)cc2s1 | inconclusive: 126 µM [inhibitor, single point] |
| Cc1nn(CC(=O)Nc2ccc(Cl)cn2)c(C)c1[N+](=O)[O-] | inconclusive: 50.1 µM [inhibitor, partial curve, poor fit] |
| O=C(Nc1ccccc1)C1CC(=O)N(Cc2ccccc2)c2nc3ccccc3n21 (configuration not stated) | inconclusive: 89.1 µM [inhibitor, partial curve, poor fit] |
| COc1ccccc1NC(=O)CSc1nncn2c1cc1sccc12 | inactive |
| CSc1nc(N(CCO)CCO)c2sc3nc(-c4ccco4)c4c(c3c2n1)CCC4 | inconclusive: 2.82 µM [inhibitor, full curve, poor fit] |
| CC(=O)c1cc2c(O)c(O)ccc2o1 | inconclusive: 4.47 µM [inhibitor, full curve, poor fit] |
| O=C(CSc1nc2ccccc2n1Cc1ccc(Cl)cc1)N/N=C/c1ccc(C(=O)O)cc1 | inconclusive: 50.1 µM [inhibitor, single point] |
| CCCOc1cccc(-c2cc(C(=O)O)c3cc(C)ccc3n2)c1 | inactive |
| Cc1cc(C(=O)COC(=O)c2ccc[nH]c2=O)c(C)n1-c1ccc(Br)cc1 | inconclusive: 2.51 µM [inhibitor, full curve, poor fit] |
| CNC(=O)[C@@H]1C[C@@H](O)CN1C1CCN(C(=O)c2ccccc2OC)CC1 | inactive |
| CC(C)Nc1nc2ccccc2c(=O)[nH]1 | inconclusive: 2.24 µM [inhibitor, full curve, poor fit] |
| CC(C)(C)C(=O)Nc1ccc2oc(-c3cccnc3)nc2c1 | inconclusive: 39.8 µM [inhibitor, single point] |
| COCCNC(=O)CNC(=S)N(Cc1ccccc1)Cc1cccnc1 | inactive |
| COC(=O)c1c(NC(=O)c2ccc(S(=O)(=O)N3CCOCC3)cc2)sc2c1CCN(C)C2 | inconclusive: 15.8 µM [inhibitor, partial curve, poor fit] |
| Cc1ccc(S(=O)(=O)N(CC(=O)N/N=C/c2cccc(Cl)c2)c2cccc3cccnc23)cc1 | inactive |

Arranged by count of non-hydrogen atoms (low to high): some entries from above

| Compound | Potency |
| --- | --- |
| COCCNC(=O)CNC(=S)N(Cc1ccccc1)Cc1cccnc1 | inactive |
| O=C(CSc1nc2ccccc2n1Cc1ccc(Cl)cc1)N/N=C/c1ccc(C(=O)O)cc1 | inconclusive: 50.1 µM [inhibitor, single point] |
| COc1ccc2cc1Oc1ccc(cc1)C[C@H]1c3cc(c(OC)cc3CCN1C)Oc1c(OC)c(OC)cc3c1[C@H](C2)N(C)CC3 | inconclusive: 3.06 µM [inhibitor, full curve, poor fit] |

Rewritten tab-delimited: entries from further up.
Compound	Potency
COc1ccc(OCc2nnc3n2N=C(c2ccccc2)C(CC(=O)O)S3)cc1 (configuration not stated)	inconclusive: 44.7 µM [inhibitor, partial curve, poor fit]
Cc1ccc2c(c1)N(C(=O)CCC(=O)NCCCN1CCC(Cc3ccccc3)CC1)CCO2	inactive

The results go on:

| Compound | Potency |
| --- | --- |
| Cc1nc2[nH]c(=S)n(C)c(=O)c2nc1C | inconclusive: 3.98 µM [inhibitor, full curve, poor fit] |
| O=C(NCc1ccco1)c1ccc(S(=O)(=O)N2CCCCC2)cc1 | inactive |
| O=C(c1c[nH]c2ccccc12)N1CCN(C(=O)C2CCCCC2)CC1 | inactive |
| COc1ccccc1N1CCN(CC(O)c2ccc3cc[nH]c3c2)CC1 (configuration not stated) | inconclusive: 44.7 µM [inhibitor, partial curve, poor fit] |
| CN1C(=O)C2(CCN(S(=O)(=O)c3ccccc3)C2)c2ccccc21 (configuration not stated) | inconclusive: 3.16 µM [inhibitor, full curve, poor fit] |
| Cc1ccc(NC2=C(Cl)C(=O)OC2OC(=O)c2ccccc2)c(C)c1 (configuration not stated) | inconclusive: 44.7 µM [inhibitor, partial curve, poor fit] |
| COC(=O)C1=CN(C)C=C(C(=O)OC)C1c1ccccc1OCc1ccccc1 | inconclusive: 112 µM [inhibitor, single point] |
| COc1cc(-c2nc3ccccn3c2Nc2ccc3c(c2)OCO3)cc(OC)c1O | inconclusive: 50.1 µM [inhibitor, partial curve, poor fit] |
| CN(CC(=O)Nc1ccc(Cl)c(C(F)(F)F)c1)C(=O)c1cccc2cccnc12 | inactive |
| CC(C)N=C(NS(=O)(=O)c1ccc(Br)cc1)c1ccc(Cl)cc1 | inconclusive: 2 µM [inhibitor, full curve, poor fit] |
| Fc1cccc(Cl)c1Cn1nnc2c(NCc3ccncc3)ncnc21 | inactive |
| CC(=O)Nc1nc(C=C(Cl)Cl)cs1 | inconclusive: 0.398 µM [inhibitor, full curve, poor fit] |
| COc1ccc(C(CNS(=O)(=O)c2ccc(C)cc2)N2CCN(C)CC2)cc1 (configuration not stated) | inconclusive: 44.7 µM [inhibitor, partial curve, poor fit] |
| COc1ccc(Oc2nc(-c3ccccn3)nc3ccccc23)cc1 | inactive and inconclusive: 398 nM [inhibitor, full curve, poor fit] |
| O=C(O)C(Cc1c[nH]c2ccccc12)NCc1ccccc1 (configuration not stated) | inconclusive: 39.8 µM [inhibitor, partial curve] |
| CC(C)N(Cc1ccccc1)C(=S)NCCN1CCOCC1 | inconclusive: 112 µM [inhibitor, single point] |
| COC(CNC(=O)c1ccc2c(c1)ncn2-c1ccc(C)cc1C)OC | inconclusive: 35.5 µM [inhibitor, single point] |
| Cc1cc(C)c(C#N)c(Nc2ccccc2F)n1 | inactive |
| CCOC=C1SC(=S)N(c2ccccc2OC)C1=O | inconclusive: 4.47 µM [inhibitor, full curve, poor fit] |
| CCSc1nnc(C)c2ccccc12 | inconclusive: 25.1 µM [inhibitor, single point] |
| O=C(C1=C(O)C(=O)N(Cc2ccco2)C1c1cccc(O)c1)c1ccco1 (configuration not stated) | inconclusive: 56.2 µM [inhibitor, partial curve] |
| COc1ccc(NC(=O)CN2CCc3ccccc3C2)cc1 | inconclusive: 3.98 µM [inhibitor, full curve, poor fit] |
| O=C(CCn1c(=O)c2cccn2c2cccnc21)Nc1ccccc1C(F)(F)F | inconclusive: 63.1 µM [inhibitor, partial curve, poor fit] |

| Compound | Potency |
| --- | --- |
| CCCOc1cccc(CNc2ccc(F)cc2)c1 | inconclusive: 10 µM [inhibitor, full curve, poor fit] |
| CC(=O)NC(CC(C)C)C(=O)NC(Cc1ccccc1)C(=O)CCl (stereo not drawn) (Ac-Leu-Phe-CH2Cl; configuration not given here) | inconclusive: 28.2 µM [inhibitor, partial curve] |
| C[C@@H](NC(=O)/C(C#N)=C/c1ccc(O)c(O)c1)c1ccccc1 | inconclusive: 794 nM [inhibitor, full curve, poor fit] and inconclusive: 631 nM [inhibitor, full curve, poor fit] |
| CC(C)(C)c1nc2ccccc2c2nnc(SCC(=O)Nc3nc4ccccc4s3)n12 | inactive |
| CCCCn1cnc2cc(NCc3ccc(OCC)cc3)ccc21 | inactive |
| N/C(=N\OC(=O)N1c2ccccc2Sc2ccccc21)c1ccccc1 | inconclusive: 31.6 µM [inhibitor, partial curve] |
| COc1cccc(C(=O)N/N=c2\sc3ccccc3n2C)c1 | inactive |
| C=CCNC(=S)Nc1sc2c(c1C(=O)OCC)CC(C(C)C)OC2 (configuration not stated) | inconclusive: 44.7 µM [inhibitor, single point] |
| Oc1cc(CNC2CCCCC2)c(O)cc1CNC1CCCCC1 | inconclusive: 5.01 µM [inhibitor, full curve, poor fit] |
| O=C(N/N=C/C=C/c1ccccc1[N+](=O)[O-])c1cccs1 | inactive |
| O=C(NCc1ccccn1)C1(c2cccc(C(F)(F)F)c2)CCOCC1 | inactive |
| COc1cccc2c(Nc3ccc(C)cc3)cc(C)nc12 | inactive |
| COc1ccc(OC)c(CNc2ccc3c(c2)CCC3)c1 | inactive |
| COc1ccccc1Nc1n[nH]c(=S)s1 | active: 14.1 µM |
| O=C(NCCCN1CCOCC1)c1ccccc1N1C(=O)[C@@H]2Cc3c([nH]c4ccccc34)C(c3ccc(F)cc3)N2C1=O (some centres not stated) | inactive |
| CCCCOc1ccc(CSCCNC(=S)Nc2ccccc2)cc1 | inconclusive: 50.1 µM [inhibitor, partial curve, poor fit] |
| CC(C)c1ccccc1NC(=O)COC(=O)c1cccnc1 | inconclusive: 126 µM [inhibitor, single point] |
| CC(NCC(O)COCc1ccc(Cl)cc1)c1ccccc1 (configuration not stated) | inactive |
| Cc1ccc2c(=O)cc(C(=O)Nc3ccc(S(=O)(=O)Nc4onc(C)c4C)cc3)oc2c1C | inconclusive: 112 µM [inhibitor, partial curve, poor fit] |
| COc1ccccc1CNC(=O)c1[nH]c(C)c(C(C)=O)c1C | inconclusive: 100 µM [inhibitor, single point] |
| O=C(CSc1oc(-c2ccccc2)nc1S(=O)(=O)c1ccc(Cl)cc1)c1ccccc1 | active: 7.94 µM |
